# Out of some 330,000 compounds screened, about 7,700 (2.3%) were called active. Inconclusive results, whose numbers are uncertain, are shown with a selection of clear calls. Calls follow the shape of the dose curve; as a rule, active = well fitted inhibition curve with a large enough effect; inconclusive = small, poorly fitted or top-dose-only effect, or effect the other way; inactive = flat fitted curve, though single readings scatter. Potencies beside an inconclusive call are fits to weak or partial responses and may not hold up.
# Assay: qHTS screen for small molecules that inhibit ELG1-dependent DNA repair in human embryonic kidney (HEK293T) cells expressing luciferase-tagged ELG1; also: nearly all actives have a fitted effect of over 55% in size
# Settings: HEK293T ELG1-luciferase reporter, luminescence, 16 h, DNA damage induced by 5-fluorouridine; series mostly up to 46.1 µM
# Summary of the method: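 Luminescence from the luciferase reporter, measured 30 min after ONE-Glo reagent at room temperature, was the read-out. Beforehand, 2,000 cells per well were exposed for 16 hr at 37 °C to 5-fluorouridine together with compound or vehicle.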
# Potency is read from the fitted curve at half-maximal effect.
row,SMILES,Potency
1,c1ccc(Cn2c(-c3ccco3)nc3nc4ccccc4nc32)cc1,"inconclusive: 4.61 µM [activator, full curve]"
2,Cc1ccc(C(=O)NC(=S)N2CCN(c3cc(C)ccc3C)CC2)cc1,"inconclusive: 16.4 µM [inhibitor, single point]"
3,COc1ccc(CC(=O)Nc2ccc(-c3csc(C)n3)cc2)cc1,inactive
4,COc1ccc(Cl)cc1C(=O)N1CCN(Cc2ccc3c(c2)OCO3)CC1,"inconclusive: 1.16 µM [inhibitor, partial curve, poor fit]"
5,C/C(=N\NC(=O)c1cccc(S(=O)(=O)N2CCOCC2)c1)c1ccco1,"inconclusive: 20.6 µM [activator, partial curve]"
6,Cc1ccc(-c2cc(-c3ccc(F)cc3)n[nH]2)c(O)c1,"inconclusive: 0.891 µM [activator, partial curve, poor fit]"
7,CCOc1cc(N2CCOCC2)c(OCC)cc1NC(=O)Cn1nc(C)c([N+](=O)[O-])c1C,inactive
8,O=C(CCNC(=O)c1ccccc1Cl)NNC(=O)c1ccccc1O,inactive
9,Cc1cc(C)c(C(=O)CSc2n[nH]c(=O)n2C2CC2)cc1C,"inconclusive: 23.1 µM [inhibitor, single point]"
10,O=C(NNC(=S)NC(=O)c1cccnc1)c1ccc(F)cc1,"inconclusive: 5.17 µM [inhibitor, full curve]"
11,Cc1ccc(CN=c2c([N+](=O)[O-])nn(-c3ccc(Cl)cc3)n2O)cc1,"inconclusive: 14.6 µM [activator, partial curve, poor fit]"
12,S=C1NC(c2ccccc2)=NCN1c1ccc(Cl)cc1,"inconclusive: 18.4 µM [activator, single point]"
13,O=C(CSc1nc(Cc2ccccc2)nc2ccccc12)Nc1nc2c(s1)CCCC2,inactive
14,CC(=O)Nc1ccc(CN(C)CC2CCCN(CCc3cccc(C(F)(F)F)c3)C2)cc1 (centres undefined),inactive
15,Fc1ccccc1/C=C1\CCCC2=C1Nc1ncnn1C2c1ccccc1F (centres undefined),active: 18.4 µM
16,CCC(OCC(O)CN1CCCCC1)c1ccccc1 (centres undefined),inactive
17,CCOC(=O)c1cc2c(=O)n3cccc(C)c3nc2n(CC(C)C)c1=NC(=O)c1ccco1,inactive
18,COc1ccc(OC)c(S(=O)(=O)Nc2ccc(C(C)=O)cc2)c1,inactive
19,Oc1ccccc1-c1cc(-c2ccc(F)cc2)n[nH]1,"inconclusive: 12.6 µM [activator, partial curve, poor fit]"
20,Cc1ccccc1Cn1ccc(NC(=O)c2onc(C)c2Cl)n1,"inconclusive: 5.17 µM [activator, partial curve]"
21,COc1ccccc1CNC(=O)C1CCC(CNS(=O)(=O)c2ccccc2)CC1 (centres undefined),"inconclusive: 11.6 µM [inhibitor, partial curve]"
22,COc1c(C)cccc1C(=O)Nc1ccc(CN2CCCCC2)cc1,"inconclusive: 20.6 µM [activator, partial curve]"
23,Cc1nc(N2CCN(Cc3ccccc3)CC2)c(C#N)c2c1COC(C)(C)C2,active: 7.31 µM

row,SMILES,Potency
1,O=C(CN(CC1CCCO1)C(=O)CNS(=O)(=O)c1ccc(Cl)cc1)NC1CCCC1 (centres undefined),inactive
2,Cn1cc([N+](=O)[O-])c(C(=O)Nc2cc(Oc3cccnc3)cc([N+](=O)[O-])c2)n1,active: 3.16 µM
3,CC1CCCCN1CCCNC(=O)c1nn(C)c2c1CSc1ccccc1-2 (centres undefined),"inconclusive: 16.4 µM [activator, partial curve]"
4,COc1cc(NC(=S)NC2CC2)c(OC)cc1Cl,"inconclusive: 9.2 µM [inhibitor, partial curve, poor fit]"
5,Cc1c(OCC(=O)NCC(O)c2ccccc2)ccc2c3c(c(=O)oc12)CCCC3 (centres undefined),"inconclusive: 23.1 µM [inhibitor, single point]"
6,O=C(CSc1nc2ccccc2n1S(=O)(=O)c1cccc([N+](=O)[O-])c1)NCc1cccs1,"inconclusive: 20.6 µM [activator, single point]"
7,Cc1ccccc1C(=O)NC(=S)NC1CC1,"inconclusive: 20.6 µM [activator, partial curve, poor fit]"
8,CN(Cc1nc2c(s1)CCCC2)C(=O)CCc1nnc(-c2ccccc2)o1,"inconclusive: 18.3 µM [activator, partial curve]"
9,CN(C)CCN=Cc1c(O)n(Cc2ccccc2)c(=O)c2ccccc12,inactive
10,Cc1ccc(NC(=O)c2cccc(S(=O)(=O)N3CCc4ccccc4C3)c2)nc1,"inconclusive: 3.26 µM [inhibitor, partial curve]"
11,O=C(CN1C(=O)c2ccccc2S1(=O)=O)N1CCN(c2ccccc2F)CC1,"inconclusive: 10.3 µM [activator, partial curve, poor fit]"
12,CC(C)(C)c1ccc2c(c1)OC(C(=O)N/N=C\c1ccc[nH]1)CO2 (centres undefined),inactive
13,COc1cccc(-c2noc(C3CCCN(C(=O)c4ccccc4OC)C3)n2)c1 (centres undefined),"inconclusive: 16.4 µM [activator, partial curve]"
14,Cc1cc(/C=N/NC(=O)c2cccc(N(C)C)c2)c(C)n1-c1cc(C(=O)O)cc(C(=O)O)c1,"inconclusive: 18.3 µM [activator, partial curve]"
15,CC(CCc1ccccc1)NC(=O)/C=C/c1ccc(Cl)cc1 (centres undefined),"inconclusive: 4.61 µM [inhibitor, partial curve, poor fit]"
16,O=C(NCCCO)c1ccc2[nH]c3c(c2c1)CCCC3,"inconclusive: 20.6 µM [activator, partial curve]"
17,CC1CCN(CCCNC(=O)c2cc3c(Cl)nc4ccccc4c3s2)CC1,"inconclusive: 29.1 µM [activator, single point]"
18,O=C(CC(c1ccccc1)c1ccccc1)Nc1ccncc1,inactive
19,COc1ccc2cc(C(=O)C3CCCN(Cc4cnc(N5CCOCC5)s4)C3)ccc2c1 (centres undefined),"inconclusive: 16.4 µM [inhibitor, partial curve]"
20,CCN(CC)N=Nc1ccc(C(=O)O)cc1,"inconclusive: 25.9 µM [activator, partial curve, poor fit]"
21,N#C/C(=C/c1ccccc1[N+](=O)[O-])c1nnc2n1CCCCC2,inactive
22,NNc1nc(Nc2ccc([N+](=O)[O-])cc2)nc(N2CCCCCC2)n1,"inconclusive: 5.17 µM [inhibitor, partial curve, poor fit]"
23,CN(C)c1cccc(C(=O)OCC(=O)NC2CCCC2)c1,inactive

row,SMILES,Potency
1,Cc1ccc(C(=O)N2CCCC(CCC(=O)N3CCN(c4ccccn4)CC3)C2)cc1C (centres undefined),active: 11.6 µM
2,CC(C)CC1NC(=O)c2ccccc2-n2c1nc1cc(F)ccc1c2=O (centres undefined),"inconclusive: 25.9 µM [activator, single point]"
3,C/C(=C\C(=O)c1ccccc1)NNC(=O)c1ccc(Cl)cc1,inactive
4,Cc1ccc[n+](CC(=O)Nc2c(Cl)cc(Cl)cc2Cl)c1,"inconclusive: 29.1 µM [activator, single point]"
5,Cc1ccc2nc(C)c(C(=O)N/N=C/c3ccc(N4CCOCC4)cc3)cc2c1,"inconclusive: 9.2 µM [activator, partial curve, poor fit]"
6,CCN1CCN(C(=O)CN(c2ccc(F)cc2)S(=O)(=O)c2ccc(OC)c(OC)c2)CC1,inactive
7,COc1cccc(N2CCN(S(=O)(=O)c3ccc4nc(-c5ccccc5)[nH]c4c3)CC2)c1,"inconclusive: 4.11 µM [inhibitor, single point]"
8,C=CCN=C(CC)C1=C(O)CCCC1=O,"inconclusive: 0.731 µM [activator, single point]"
9,CC(=O)c1c(O)cc(O)c(C(C)=O)c1O,"inconclusive: 13 µM [inhibitor, partial curve, poor fit]"
10,NC(=O)COC(=O)/C=C/c1ccc2ccccc2n1,inactive
11,COC(=O)c1ccc(NC(=O)Nc2ccc(F)cc2)cc1,"inconclusive: 29.1 µM [inhibitor, single point]"
12,CCCC(=O)NC(c1ccccc1Cl)c1ccc2cccnc2c1O (centres undefined),"inconclusive: 29.1 µM [inhibitor, single point]"
13,O=C(/C=C\Nc1ccc(Cl)cn1)c1ccc(Br)cc1,"inconclusive: 6.51 µM [activator, full curve]"
14,COc1ccc(NC(=O)COC(=O)Cc2coc3cc(OC)ccc23)c(OC)c1,inactive
15,COc1ccc(-n2nnnc2SCC(=O)NC2CCS(=O)(=O)C2)cc1 (centres undefined),inactive
16,COC(=O)[C@@]1(Cc2ccccc2)[C@H]2C(=O)N(Cc3ccccc3)C(=O)[C@H]2[C@H]2CN=C(SCc3ccccc3)N21,"inconclusive: 20.6 µM [inhibitor, partial curve]"
17,Cn1nc(C(C)(C)C)cc1C(=O)NNC(=O)c1cccc(Cl)c1,active: 7.3 µM
18,CCN(c1ccc(NC(=O)CSc2ccc3c(c2)OCCO3)cc1)C(C)C,"inconclusive: 29.1 µM [inhibitor, single point]"
19,CCN(C[C@H]1N[C@@](Cc2ccccc2)(C(=O)OC)[C@H]2C(=O)N(C)C(=O)[C@@H]12)S(=O)(=O)c1ccc(-c2ccccc2)cc1,"inconclusive: 23.1 µM [inhibitor, partial curve]"
20,COc1ccccc1N1CCN(CCCCOc2cccc3ccccc23)CC1,"inconclusive: 13 µM [inhibitor, partial curve, poor fit]"
21,Cc1ccc(C(=O)NC(=S)NNC(=O)COc2ccc([N+](=O)[O-])cc2)cc1,"inconclusive: 7.3 µM [activator, partial curve]"
22,Cc1ccc(CN(CCO)CCO)cc1,"inconclusive: 6.51 µM [activator, partial curve, poor fit]"
23,CCn1cc(C(=O)NCCc2ccccc2)c(=O)c2cc(F)c(N3CCN(C)CC3)cc21,"inconclusive: 29.1 µM [inhibitor, single point]"

# — PubChem BioAssay AID504467 (National Center for Advancing Translational Sciences (NCATS), 2011)
